# From the supplement of paper PMC7024190
# Structures can show the parent of a compound that is named as a salt. The list shows a part of the results. This data set is noisy: repeats of one test often differ as much as different tests do.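 Human embryonic kidney cells were transiently transfected with a plasmid bearing a Renilla luciferase gene under the HSV-TK promoter. This first-round screen tests roughly ten thousand compounds for ones that increase reporter output.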
# System: HEK 293FT
# Experiment: log relative Renilla luciferase luminescence (reporter expression vs reference, reference not stated) (log (base not stated)); higher = higher recombinant reporter expression
# Conditions: 10 µM; time after transfection 48 h
row,SMILES,log
1,Cn1c(=O)c2[nH]c([N+](=O)[O-])nc2n(C)c1=O [8-Nitrotheophylline],-0.185
2,C/C(=C\C(=O)OCCCCCCCCC(=O)O)C[C@@H]1OC[C@H](C[C@@H]2O[C@H]2[C@@H](C)[C@H](C)O)[C@@H](O)[C@H]1O [Mupirocin],-0.101
3,CNC(=C[N+](=O)[O-])NCCSCc1ccc(CN(C)C)o1 [Ranitidine Hydrochloride],-0.215
4,O=C(Nc1ncc([N+](=O)[O-])s1)c1cccs1 [Tenonitrozole],-0.0372
5,COc1cc2cc(Oc3ccc4ccc(=O)oc4c3)c(=O)oc2cc1O [Daphnoretin],0.191
6,CNCCc1ccccn1 [Betahistine],-0.0295
7,O=C(O)CCc1nc2ccccc2[nH]1 [Procodazole],0.0684
8,O=C(O)c1ccc(NC2OC[C@@H](O)[C@H](O)[C@H]2O)cc1 (some centres undefined) [Benaxibine],0.00898
9,CCNCC(=O)N1c2ccccc2CCc2ccc(NC(=O)OCC)cc21,-0.248
10,Cn1cnc2c1c(=O)n(CC(O)CO)c(=O)n2C (centres undefined) [Dihydroxypropyltheobromine],0.0745
11,COc1cc(Br)c(Cc2nccc3cc(OC)c(OC)cc23)cc1OC [Bromopapaverine],-0.409
12,O=C1C=CC(=O)c2c(O)c(O)c(O)c(O)c21 [Spinizarine],-0.238
13,C=C1C(=O)O[C@@H]2C[C@@]3(C)CCC[C@H](C)[C@@]34O[C@H]4[C@H]12 [5-Alpha-Epoxyalantolactone],-0.136
14,C(#Cc1ccc(C#CCN2CCOCC2)cc1)CN1CCOCC1 [Benzomopine],0.0715

# Sorted by molar mass (low to high): 3 of the compounds above.
row,SMILES,log
13,C=C1C(=O)O[C@@H]2C[C@@]3(C)CCC[C@H](C)[C@@]34O[C@H]4[C@H]12 [5-Alpha-Epoxyalantolactone],-0.136
5,COc1cc2cc(Oc3ccc4ccc(=O)oc4c3)c(=O)oc2cc1O [Daphnoretin],0.191
2,C/C(=C\C(=O)OCCCCCCCCC(=O)O)C[C@@H]1OC[C@H](C[C@@H]2O[C@H]2[C@@H](C)[C@H](C)O)[C@@H](O)[C@H]1O [Mupirocin],-0.101
